Drawing on article PMC8257755, this text covers binding for 2 substances.

The chains behind the UniProt entries cited, without tags or fusion partners. Where a name states a change or a piece, a line headed by the entry shows the natural chain unless it says otherwise. A line that says so, or that is headed by a name, gives the form on record, which may keep a tag or linker. Residues count along the entry.
UniProt Q8N2Q7, residues 46-863: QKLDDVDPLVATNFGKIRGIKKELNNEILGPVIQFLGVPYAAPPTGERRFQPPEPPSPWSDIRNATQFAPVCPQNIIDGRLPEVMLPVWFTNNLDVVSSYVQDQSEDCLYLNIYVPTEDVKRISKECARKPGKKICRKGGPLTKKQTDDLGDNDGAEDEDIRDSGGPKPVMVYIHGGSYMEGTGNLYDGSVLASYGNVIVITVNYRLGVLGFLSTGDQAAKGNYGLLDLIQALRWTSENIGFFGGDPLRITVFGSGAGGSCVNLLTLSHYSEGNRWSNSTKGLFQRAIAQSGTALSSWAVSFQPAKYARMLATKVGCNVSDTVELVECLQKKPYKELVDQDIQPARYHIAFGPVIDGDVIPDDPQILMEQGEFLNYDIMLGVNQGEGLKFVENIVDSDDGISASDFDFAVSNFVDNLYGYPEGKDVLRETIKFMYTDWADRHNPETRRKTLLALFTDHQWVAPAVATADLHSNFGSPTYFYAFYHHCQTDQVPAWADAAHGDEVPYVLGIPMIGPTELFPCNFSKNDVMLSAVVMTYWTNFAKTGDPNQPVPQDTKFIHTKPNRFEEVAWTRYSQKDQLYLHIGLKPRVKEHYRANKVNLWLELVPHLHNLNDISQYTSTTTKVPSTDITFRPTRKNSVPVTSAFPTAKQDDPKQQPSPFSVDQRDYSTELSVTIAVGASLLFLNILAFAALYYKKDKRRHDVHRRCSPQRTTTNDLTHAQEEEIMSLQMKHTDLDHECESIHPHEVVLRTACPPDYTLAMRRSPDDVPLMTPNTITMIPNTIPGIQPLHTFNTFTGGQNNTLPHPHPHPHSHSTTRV
ErbB4-K751M (Q15303, form named): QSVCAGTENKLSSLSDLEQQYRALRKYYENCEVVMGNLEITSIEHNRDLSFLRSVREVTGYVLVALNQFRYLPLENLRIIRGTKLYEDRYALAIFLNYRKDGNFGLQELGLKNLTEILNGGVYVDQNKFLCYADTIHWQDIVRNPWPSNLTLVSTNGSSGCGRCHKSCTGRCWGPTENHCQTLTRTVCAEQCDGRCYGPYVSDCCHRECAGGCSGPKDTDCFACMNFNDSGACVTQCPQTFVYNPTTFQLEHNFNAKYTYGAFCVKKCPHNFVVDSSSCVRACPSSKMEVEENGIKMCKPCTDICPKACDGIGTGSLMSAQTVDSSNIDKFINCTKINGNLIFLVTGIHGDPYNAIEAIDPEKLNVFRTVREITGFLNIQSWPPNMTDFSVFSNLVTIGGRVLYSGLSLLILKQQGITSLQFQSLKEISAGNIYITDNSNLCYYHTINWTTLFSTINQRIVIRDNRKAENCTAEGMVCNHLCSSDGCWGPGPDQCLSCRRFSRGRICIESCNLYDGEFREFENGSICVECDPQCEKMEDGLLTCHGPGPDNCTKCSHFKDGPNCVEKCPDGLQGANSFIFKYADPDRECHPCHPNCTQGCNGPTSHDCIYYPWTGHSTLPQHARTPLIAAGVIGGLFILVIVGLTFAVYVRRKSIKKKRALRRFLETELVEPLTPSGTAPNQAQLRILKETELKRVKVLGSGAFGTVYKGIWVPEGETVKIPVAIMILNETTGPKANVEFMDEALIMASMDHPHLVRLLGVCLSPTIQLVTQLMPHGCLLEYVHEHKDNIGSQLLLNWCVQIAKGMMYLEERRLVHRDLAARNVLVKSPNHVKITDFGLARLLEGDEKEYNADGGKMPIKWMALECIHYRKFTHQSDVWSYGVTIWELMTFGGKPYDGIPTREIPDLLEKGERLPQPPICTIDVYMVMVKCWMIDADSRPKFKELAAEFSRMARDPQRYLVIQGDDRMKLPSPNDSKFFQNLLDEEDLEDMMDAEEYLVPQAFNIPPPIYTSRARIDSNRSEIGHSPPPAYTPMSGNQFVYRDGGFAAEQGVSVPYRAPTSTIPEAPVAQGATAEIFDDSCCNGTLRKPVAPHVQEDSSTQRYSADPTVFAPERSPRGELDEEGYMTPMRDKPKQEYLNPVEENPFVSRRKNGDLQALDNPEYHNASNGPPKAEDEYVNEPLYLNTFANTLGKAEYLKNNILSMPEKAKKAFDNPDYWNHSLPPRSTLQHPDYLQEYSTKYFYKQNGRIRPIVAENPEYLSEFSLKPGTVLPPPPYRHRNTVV
UniProt P58400, residues 51-472: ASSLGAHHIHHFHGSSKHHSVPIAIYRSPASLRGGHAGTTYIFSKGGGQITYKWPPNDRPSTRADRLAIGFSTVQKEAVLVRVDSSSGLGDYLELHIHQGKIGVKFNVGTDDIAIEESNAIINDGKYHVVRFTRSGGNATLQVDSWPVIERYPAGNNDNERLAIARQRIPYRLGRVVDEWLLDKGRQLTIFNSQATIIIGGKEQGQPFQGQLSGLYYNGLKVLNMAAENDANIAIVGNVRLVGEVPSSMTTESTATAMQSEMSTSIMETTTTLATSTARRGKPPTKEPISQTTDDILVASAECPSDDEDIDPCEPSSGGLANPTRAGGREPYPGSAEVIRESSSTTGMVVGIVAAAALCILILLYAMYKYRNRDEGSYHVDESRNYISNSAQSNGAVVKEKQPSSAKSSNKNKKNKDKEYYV

Results are given in words; binding and its absence hold for the method and conditions named. Some binding calls cover weakened binding; strength is not graded here.

The target in one assay is T1, Slitrk3 (UniProt O94933).
T1 sequence: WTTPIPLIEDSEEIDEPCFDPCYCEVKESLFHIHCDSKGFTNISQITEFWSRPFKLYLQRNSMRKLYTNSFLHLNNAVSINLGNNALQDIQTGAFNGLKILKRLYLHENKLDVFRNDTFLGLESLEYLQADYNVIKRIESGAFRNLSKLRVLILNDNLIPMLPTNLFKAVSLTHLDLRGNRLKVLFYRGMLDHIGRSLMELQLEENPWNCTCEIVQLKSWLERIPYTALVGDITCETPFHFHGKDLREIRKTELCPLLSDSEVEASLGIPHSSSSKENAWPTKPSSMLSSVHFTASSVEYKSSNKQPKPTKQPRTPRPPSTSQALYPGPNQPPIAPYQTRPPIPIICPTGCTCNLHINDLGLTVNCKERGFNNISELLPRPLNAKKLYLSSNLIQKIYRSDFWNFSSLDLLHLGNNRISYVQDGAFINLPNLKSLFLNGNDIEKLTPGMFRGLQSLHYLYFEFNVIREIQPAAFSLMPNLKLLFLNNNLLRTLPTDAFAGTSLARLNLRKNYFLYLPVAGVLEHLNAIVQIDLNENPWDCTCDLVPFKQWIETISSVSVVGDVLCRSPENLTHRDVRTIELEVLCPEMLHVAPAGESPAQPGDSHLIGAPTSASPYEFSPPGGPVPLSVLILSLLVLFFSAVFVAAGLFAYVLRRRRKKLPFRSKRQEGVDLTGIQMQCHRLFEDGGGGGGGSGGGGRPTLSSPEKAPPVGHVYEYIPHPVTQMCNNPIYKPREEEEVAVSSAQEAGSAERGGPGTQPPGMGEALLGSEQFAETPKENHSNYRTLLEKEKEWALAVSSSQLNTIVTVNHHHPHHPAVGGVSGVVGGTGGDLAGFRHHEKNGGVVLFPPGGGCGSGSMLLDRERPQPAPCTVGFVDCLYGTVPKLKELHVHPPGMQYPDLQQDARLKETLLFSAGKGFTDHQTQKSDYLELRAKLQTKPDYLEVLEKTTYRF
In words: cell aggregation assay; HEK293T cells transfected separately (DsRed with one protein, EGFP with the other), detached with 1 mM EDTA in PBS, mixed, gentle agitation at room temperature in DMEM with 10% FBS, 50 mM HEPES-NaOH pH 7.4, 10 mM MgCl2, 10 mM CaCl2; aggregation assessed at 90 min.

The target of another assay is NLGN1 (UniProt Q8N2Q7). Described as above.

Take “ErbB4-K751M (from UniProt Q15303 26-1308) (receptor)”: the binding entry in the assay with Slitrk3 is recorded as “binds”.

Turning to NRXN1β (from UniProt P58400 51-472), in the assay with NLGN1, the binding result is listed as “binds”.
